Experimental data published in PMC10448178.

How the values were obtained:
MntR (Bacillus subtilis) = target: T1, MntR (Bacillus subtilis) (UniProt P54512); test: EMSA; details: 10 mM Tris-HCl pH 7.5, 43 mM NaCl, 1 mM MnCl2, 1 mM DTT, 5% glycerol, 1 ug poly[dI-dC] per 14 ul, 23 C 15 min, 5% PAGE in 40 mM Tris-acetate at 4 C, recombinant protein, residues 1-142, label: biotin, probe letters rebuilt from the primers and the genome
T1 sequence (looked up): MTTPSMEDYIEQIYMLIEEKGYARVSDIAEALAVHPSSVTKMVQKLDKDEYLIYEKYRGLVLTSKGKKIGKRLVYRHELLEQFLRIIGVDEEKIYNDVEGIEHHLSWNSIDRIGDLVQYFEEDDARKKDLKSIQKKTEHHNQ

AhrC (Bacillus subtilis) = target: T2, AhrC (Bacillus subtilis) (UniProt P17893); test: EMSA; details: 1 mM Mn2+; 10 mM Tris-HCl pH 7.5, 43 mM NaCl, 1 mM MnCl2, 1 mM DTT, 5% glycerol, 1 ug poly[dI-dC] per 14 ul, 23 C 15 min; 5% PAGE in 40 mM Tris-acetate at 4 C; recombinant protein; residues 1-149; label: biotin; probe letters rebuilt from the primers and the genome
T2 sequence: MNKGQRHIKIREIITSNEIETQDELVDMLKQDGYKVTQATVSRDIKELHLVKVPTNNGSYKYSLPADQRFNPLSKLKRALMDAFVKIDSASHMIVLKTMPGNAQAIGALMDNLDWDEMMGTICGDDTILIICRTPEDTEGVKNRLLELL

Sequence | binding result (MntR (Bacillus subtilis); 1 mM Mn2+) | binding result (AhrC (Bacillus subtilis)) | also measured
ATCGAATTCGGCTTTACAATGGAGAATGTGATGGCGATGGGCGACAGCCTTAATGACATTGCGATGATCAAAGAAGCGGGTCTTGGCGTCGCAATGGGCAATGCGCAAGACATCGTAAAAGAAACGGCTGATTATATCACGGATACAAATATTGAGGATGGTGTCGCTAAAGCGATTCGCCATTGGGTACTATAAAAAAAGAGAGTCCTAAGATGGACTCTCTTTTTTAGTTTGGCAGGTTTTATTCTGGGACCATGGTAGGTTTTCTGACAAAAGTATTTCACAAACTGATATGATTCACTTATAATGAAATAAAGTTCAAAAATTCGGAATAGTCGTTCCGAATTTCGGGACAATAAATGACATAAAGCATATCGTTTGCTTTGGCAGGAGGGATTCTGTGTTTCAGATTGATTTAAACTGTGATTTAGGAGAAAGCTTCGG (double strand) [PpxpA (Fig 5A)] | binds | binds | 
ATGAAGCTTGTCTCACCTGAATTCTGTTTGTTTTTGCCGTACAACAAAGAGTTTCCTTAAGGCAAATTATTTTATCTACATCATATGACCATCCCGGTTTCTTGTCAACCGAAAATGTTCAAAATACACTTCTGAATTTTTCCCTGTTATGTAACATGATATGTAGGGATTCGTGATAAGGTCCCATATAAAAAGACATCGTTTCATTTCGAAACGATGCCTCCTGTATCTAATGAGTCTAGGCTTCCTTCCGCAGCCCGCGGAATATAAGGCCCAGCAAGAACACGAAGATGGCTGCCCCGATGATGGCCGGGA (double strand) [PmntH Wt] |  | binds | binding result (MntR (Bacillus subtilis); 1 mM Mn2+, two bands): binds
ATGGGATCCATTATGCTCGGGGGCTTTCTCGCTGACTTTTTCACAGTGCAAATGATTTTTTATGCAAGCTCTATTCTATATTTTTTGAGTGGATTGATGATGATGAAAACAGGCTGACGCGGTCAGCCTGTTTTTTTATGCGGCTGAAATGCGGCACCGCATCAACGTTTTTGTGCTGGAGTCGTGCTGATTTTTTTTGAGCGGAATTCCCATTGAACAGAAAATTTATAAATGAATAAAAATATTAAATATACGATTGAATTAATTTTTATTCATGTTATAATGTTAAATAATTTCACAAAGACCAAGAGGG (double strand) [PargC] |  | binds | binding result (MntR (Bacillus subtilis); with Mn2+): binds
ATGGGATCCATTTCTCCTCCTCTTTGCCATCAATGTCCGATTGTTTTATCTTATGTTGTCAGTTCTTAGACATGTGACATTAAATTAGCCAAAAGCATGTTTTATTTACACAGGACAAAAAGTTTCCCTCATGCAAAATTATCGCGTTTGGCCATTTTTGTCAAGCTGATTTACATAAAAAAACCGGCTGGGTCAGCAGCCGGTCCAAACGAGAAGGGATGTATTCAACGAACACTTTTACTGTAACAGCACAGTGTCATTTATTCAAAATAGCAAAATGCTTTTTTCTTAACCATGCTGTGTGAA (double strand) [PmntA] | binds | binds | 
GCAACTTTTCTGCTTATTTGTTCTCTTTCACTTGCCATTTTTTCCTCCTATAAAACTGCACAAAAAAATAGGAGTGCTCTATATACGCTCTCCGTATCCTTTCCTGTGTAATCACTTTGTTTATCATACCAATTCAATTTCGAGTGGGTCTATAGCAACGTTGTTTCCTGTTTACTAATAAATAAGGTGACAGAAAAAAAGTTGGAGCTATGCTAAAAAGGTCATACAGCAAACAAATGAGTTCTTATGTAACAACAGTGATGATTCGCTATTAAAATGCTGCCGTCAGTGAAAAATTTCCACCTAATTTTCAAAAACCTATTGACATGAGAAGATCTGTATTTTACTATTATCTCATATTCAAGATATTTTAATTTGAGATATTTGGTCGGAAAGATCAGCGATCAAGCGCAACTCTAAGTGTTCAATCGTTGTCAGTTCTTTTACACAATATTCAATATGATTTTTTATAACATAATATCTCGAATTCGAG (double strand) [PmneP -386/+118] |  |  | binding result (MntR (Bacillus subtilis); 1 mM Mn2+, complete shift at 0.1 uM): binds
TCCTATAAAACTGCACAAAAAAATAGGAGTGCTCTATATACGCTCTCCGTATCCTTTCCTGTGTAATCACTTTGTTTATCATACCAATTCAATTTCGAGTGGGTCTATAGCAACGTTGTTTCCTGTTTACTAATAAATAAGGTGACAGAAAAAAAGTTGGAGCTATGCTAAAAAGGTCATACAGCAAACAAATGAGTTCTTATGTAACAACAGTGATGATTCGCTATTAAAATGCTGCCGTCAGTGAAAAATTTCCACCTAATTTTCAAAAACCTATTGACATGAGAAGATCTGTATTTTACTATTATCTCATATTCAAGATATTTTAATTTGAGATATTTGGTCGGAAAGATCAGCGATCAAGCGCAACTCTAAGTGTTCAATCGTTGTCAGTTCTTTTACACAATATTCAATATGATTTTTTATAACATAATATCTCGAATTCGAG (double strand) [PmneP 3' deletion] |  |  | binding result (MntR (Bacillus subtilis); 1 mM Mn2+, scarce binding): binds more weakly
TTTAGTTTGGCAGGTTTTATTCTGGGACCATGGTAGGTTTTCTGACAAAAGTATTTCACAAACTGATATGATTCACTTATAATGAAATAAAGTTCAAAAATTCGGAAGCTTCCG (double strand) [PpxpA probe 5] | binds |  | 

For some assays here: The comparison behind a weaker result is the experiment's own reference, which may not be listed here. For some assays here: Where a protein sequence is shown, tags need not be part of it. For some assays here: Construct, isoform or probe ends are uncertain for at least one entry. For some assays here: At least one verdict rests on a figure or table, not on a statement of the authors.
